# Reference: publication PMC10646254
# Protein sequences, listed by entry. Tags and fused reporters are not part of them.
# UniProt P28482: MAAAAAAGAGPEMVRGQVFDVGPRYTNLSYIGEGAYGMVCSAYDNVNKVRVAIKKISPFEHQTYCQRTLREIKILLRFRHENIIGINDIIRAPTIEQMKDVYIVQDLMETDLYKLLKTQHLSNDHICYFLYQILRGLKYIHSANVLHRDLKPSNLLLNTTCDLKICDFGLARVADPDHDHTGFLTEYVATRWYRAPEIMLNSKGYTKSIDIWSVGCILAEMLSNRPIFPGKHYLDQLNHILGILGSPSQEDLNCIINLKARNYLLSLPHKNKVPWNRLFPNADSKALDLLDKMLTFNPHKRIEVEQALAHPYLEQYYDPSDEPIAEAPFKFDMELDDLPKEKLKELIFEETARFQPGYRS
# UniProt P08047: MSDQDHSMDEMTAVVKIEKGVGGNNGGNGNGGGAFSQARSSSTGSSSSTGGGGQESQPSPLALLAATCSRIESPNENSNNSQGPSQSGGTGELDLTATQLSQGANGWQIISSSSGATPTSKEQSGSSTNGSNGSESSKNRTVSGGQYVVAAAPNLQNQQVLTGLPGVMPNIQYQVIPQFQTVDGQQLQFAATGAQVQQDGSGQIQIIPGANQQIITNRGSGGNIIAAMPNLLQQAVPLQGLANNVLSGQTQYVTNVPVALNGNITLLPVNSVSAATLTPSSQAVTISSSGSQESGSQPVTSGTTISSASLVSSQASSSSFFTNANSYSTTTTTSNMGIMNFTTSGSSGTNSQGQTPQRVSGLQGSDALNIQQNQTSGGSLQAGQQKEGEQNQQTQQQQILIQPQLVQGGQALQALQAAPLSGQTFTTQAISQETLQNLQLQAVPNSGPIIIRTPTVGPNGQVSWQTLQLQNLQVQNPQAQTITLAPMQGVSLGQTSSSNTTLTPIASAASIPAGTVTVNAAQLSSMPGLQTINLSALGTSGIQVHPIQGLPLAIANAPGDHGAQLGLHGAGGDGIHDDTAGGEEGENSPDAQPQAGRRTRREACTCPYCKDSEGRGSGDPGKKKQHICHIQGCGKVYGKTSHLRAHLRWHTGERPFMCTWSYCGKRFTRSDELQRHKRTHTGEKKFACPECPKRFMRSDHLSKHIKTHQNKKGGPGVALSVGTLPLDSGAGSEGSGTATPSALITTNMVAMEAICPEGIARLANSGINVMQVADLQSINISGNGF
# UniProt Q02447: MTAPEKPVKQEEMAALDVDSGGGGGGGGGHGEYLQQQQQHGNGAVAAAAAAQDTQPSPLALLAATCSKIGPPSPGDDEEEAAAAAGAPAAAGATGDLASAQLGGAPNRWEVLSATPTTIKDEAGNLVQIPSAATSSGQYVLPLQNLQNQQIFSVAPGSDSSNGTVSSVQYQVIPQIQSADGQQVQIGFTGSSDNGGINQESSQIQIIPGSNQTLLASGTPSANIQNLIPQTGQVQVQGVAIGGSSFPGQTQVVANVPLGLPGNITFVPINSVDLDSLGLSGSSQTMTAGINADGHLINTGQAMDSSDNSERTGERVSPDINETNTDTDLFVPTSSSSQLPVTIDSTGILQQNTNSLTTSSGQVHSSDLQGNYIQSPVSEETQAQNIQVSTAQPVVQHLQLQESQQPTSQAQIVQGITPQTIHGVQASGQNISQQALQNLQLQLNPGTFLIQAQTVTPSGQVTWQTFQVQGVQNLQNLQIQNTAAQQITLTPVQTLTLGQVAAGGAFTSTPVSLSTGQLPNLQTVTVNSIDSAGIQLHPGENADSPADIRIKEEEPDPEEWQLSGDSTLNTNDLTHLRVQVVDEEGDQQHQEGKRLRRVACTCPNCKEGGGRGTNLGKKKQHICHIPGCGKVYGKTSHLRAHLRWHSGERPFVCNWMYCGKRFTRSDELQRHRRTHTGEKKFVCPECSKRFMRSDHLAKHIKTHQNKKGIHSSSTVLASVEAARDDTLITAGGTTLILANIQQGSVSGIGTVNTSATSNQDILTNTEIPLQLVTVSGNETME
# These are yes or no findings as the source states them, for the method shown. Binding seen in cells or lysates may run through a third protein. Here binding means that the protein was enriched with, or labelled near, the bait; the list need not be complete. Sequences can lack the tags named with a protein.
# Molecular target: T1, FLAG-tagged ELK4 (wild type) (human) (UniProt P28324)
# T1 sequence: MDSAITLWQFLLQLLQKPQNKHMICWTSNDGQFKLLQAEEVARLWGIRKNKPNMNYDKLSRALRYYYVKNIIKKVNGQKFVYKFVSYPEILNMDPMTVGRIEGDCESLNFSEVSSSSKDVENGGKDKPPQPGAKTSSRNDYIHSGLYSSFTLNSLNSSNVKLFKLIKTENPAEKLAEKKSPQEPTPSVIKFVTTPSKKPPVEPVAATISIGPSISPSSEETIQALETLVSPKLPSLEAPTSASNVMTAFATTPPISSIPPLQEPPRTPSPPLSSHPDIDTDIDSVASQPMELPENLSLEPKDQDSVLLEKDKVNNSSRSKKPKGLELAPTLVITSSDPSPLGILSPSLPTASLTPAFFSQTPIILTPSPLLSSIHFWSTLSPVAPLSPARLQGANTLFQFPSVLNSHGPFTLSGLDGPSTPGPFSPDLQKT
# Assay: affinity purification with mass spectrometry; cells transfected with Flag-ELK4 or empty vector for 48 h, co-IP with anti-Flag antibody, SDS-PAGE, mass spectrometry
row,binding,Substance
1,binds,ERK2 (from UniProt P28482 1-360) (enzyme)
2,binds,endogenous SP1 (from UniProt P08047 1-785)
3,binds,endogenous SP3 (from UniProt Q02447 1-781)
